This is an account of results in article PMC7819943, “Rice protein-binding microarrays: a tool to detect cis-acting elements near promoter regions in rice”.

The chains behind the UniProt entries cited, without tags or fusion partners.
UniProt Q0JBA9, entry or part of it: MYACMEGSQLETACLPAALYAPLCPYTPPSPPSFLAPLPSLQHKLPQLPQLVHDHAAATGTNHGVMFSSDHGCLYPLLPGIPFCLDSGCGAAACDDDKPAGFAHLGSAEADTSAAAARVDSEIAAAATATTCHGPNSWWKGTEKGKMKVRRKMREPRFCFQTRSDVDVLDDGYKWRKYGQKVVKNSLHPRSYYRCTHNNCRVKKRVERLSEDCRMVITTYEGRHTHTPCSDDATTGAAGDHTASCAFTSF

This is one part of the list.

This test deals with OsWRKY34 (Oryza sativa, UniProt Q0JBA9 1-250). Briefly: protein-binding microarray (RPBM); PBS, 2% BSA, 51.3 ng/ul salmon testes DNA, 50 uM zinc acetate, 200 nM TF, 25 C, 1 h; high values mean tight binding. The note with it: protein: recombinant; tags: N-terminal polyhistidine and DsRed monomer fusion (pET32a); label: CyDye5-dUTP incorporated in the synthesized complementary strand; 3' TTTTT single-stranded linker to array surface; dsDNA, one strand shown. Put shortly:
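Ni–NTA purification followed expression in E. coli BL21-CodonPlus of transcription factors fused N-terminally to a polyhistidine tag and DsRed. At 200 nM in PBS with 2% BSA, salmon testes DNA and 50 µM zinc acetate, the protein was incubated for 1 h at 25 °C with a custom Agilent array that had been primer-extended with Cy5-dUTP and blocked with 2% BSA. After washing, the array was read on an Axon 4000B scanner. The binding signal is per-feature fluorescence intensity in arbitrary units.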
Take “ATGCTTCACAATCCTGAATGGATAATTTGTTTGTATGTGTCGGAGTCACCTAGTGCAG”: the binding signal is 8540 fluorescence intensity (a.u.).

As to “CGGAGAGGGAGGGGAGCTAGGGTTTTTCGGGGCGGGGATGCGGAGTCACCTAGTGCAG”, the binding signal is 27600 fluorescence intensity (a.u.).

Take “ACTGATGCTTCCTACCCTGTTTAACTCACGAGACCATGAACGGAGTCACCTAGTGCAG”: the binding signal was 8770 fluorescence intensity (a.u.).

Turning to “ATCAATCACTACTGCATATTACTATAATCTCCTCTATACTCGGAGTCACCTAGTGCAG”, the binding signal was 14400 fluorescence intensity (a.u.).

On to “AGTATGAATTCGATCTCCATTCCGCTATACAAAAATTCTTCGGAGTCACCTAGTGCAG”, for which the binding signal was 8280 fluorescence intensity (a.u.).

For the sequence “CTGACTTGGTTTCCATGCAGCACAATTTAGTTTCAGCTTGCGGAGTCACCTAGTGCAG”, the binding signal is 8420 fluorescence intensity (a.u.).

Regarding “CTAGGCTCCGAGGGAGTACTTTTTTTTTTTTTACCTGCTTCGGAGTCACCTAGTGCAG”, the binding signal was 8200 fluorescence intensity (a.u.).

On to “AATACTCCCGTAATAAAATGTATTGACTTTGGTCAAAGTCCGGAGTCACCTAGTGCAG”, for which the binding signal is 9340 fluorescence intensity (a.u.).

For the sequence “GCTATAGACACCATTCTAGTCATTGGGTTGGGAATGATCTCGGAGTCACCTAGTGCAG”, the binding signal is 13800 fluorescence intensity (a.u.).

Regarding “CCGCAGCACCTACTCCGTTTGCGCTTGTGACGCGCGCGTTCGGAGTCACCTAGTGCAG”, the binding signal is 10000 fluorescence intensity (a.u.).

“TTTATTTCATTTATTTGTGACTTACTTTATTATTCAAAGTCGGAGTCACCTAGTGCAG”: the binding signal is 8360 fluorescence intensity (a.u.).

As for “ACCCCACCTCCTCCCGTGCAAAACCTCCACCACCACCGCCCGGAGTCACCTAGTGCAG”, the binding signal was 8040 fluorescence intensity (a.u.).

Consider “ACCCAATAAGTCCAGCTAACTTGCTTACATGGCCACTACACGGAGTCACCTAGTGCAG”, for which the binding signal is 8040 fluorescence intensity (a.u.).

On to “TTGCCCATGTCTGCTTCTAGCTTCTTCTCGGCTGATTGCTCGGAGTCACCTAGTGCAG”, for which the binding signal was 8670 fluorescence intensity (a.u.).

Take “ATTCCGCCTGAACCCCACACCCGGATTCCGCCGTCAGCCACGGAGTCACCTAGTGCAG”: the binding signal is 8730 fluorescence intensity (a.u.).

Turning to “AATATGTCACGCCAATCCGAATCTGTTACTTGCTCGAACCCGGAGTCACCTAGTGCAG”, the binding signal was 9500 fluorescence intensity (a.u.).

As to “CCGGATCTAGCAAGGCCCTCCGACTTTGGCGGTGGAGGGGCGGAGTCACCTAGTGCAG”, the binding signal is 8450 fluorescence intensity (a.u.).

Consider “CCGCACTCCCGCCACCACCCATACGAGACGCCGCGCGCGTCGGAGTCACCTAGTGCAG”, for which the binding signal is 8760 fluorescence intensity (a.u.).

With “GTCGTCTGTACAGTGCTGCCCTGTATTTGCAGCCTTTCTCCGGAGTCACCTAGTGCAG”, the binding signal is 9020 fluorescence intensity (a.u.).

“GGGGCGGGAGCGGGAGGGCGGCGTCGGCGAGTAGGAGGTGCGGAGTCACCTAGTGCAG”: the binding signal is 9750 fluorescence intensity (a.u.).

On to “TCAGCGCCCCACACCTGTATATATATATATATATCGTCTTCGGAGTCACCTAGTGCAG”, for which the binding signal is 10100 fluorescence intensity (a.u.).

Turning to “GAGGCTAGCTGACGTTTTTTTTTTGGTTGGCTTCTCGATCCGGAGTCACCTAGTGCAG”, the binding signal is 8730 fluorescence intensity (a.u.).

Consider “CTCTCGGCCTCTCTCCATCTGCGTGAGCTGCTCTCGCTTCCGGAGTCACCTAGTGCAG”, for which the binding signal was 8580 fluorescence intensity (a.u.).

On to “CTCGCCGCTCAAGGCCACTGACTTCGGTCTTTCCGTTTTCCGGAGTCACCTAGTGCAG”, for which the binding signal is 10700 fluorescence intensity (a.u.).

In the case of “TTCTTCCTCTTGCGCCTCATCAGCCTTCTTCACCTAGCACCGGAGTCACCTAGTGCAG”, the binding signal was 8040 fluorescence intensity (a.u.).

Consider “TCCGCTAAGTCAATCCTACCGCCTCGCCTCATCTCCGTCACGGAGTCACCTAGTGCAG”, for which the binding signal was 11300 fluorescence intensity (a.u.).

On to “TGCACACATTCTCTCACAATGCATGTATCGATTAAAACACCGGAGTCACCTAGTGCAG”, for which the binding signal was 9800 fluorescence intensity (a.u.).

On to “CCTCTATTTTTTCCGTGTACTTATATTTTTTTTGGCCGTACGGAGTCACCTAGTGCAG”, for which the binding signal is 13800 fluorescence intensity (a.u.).

Turning to “CAGCAACCGTTCGTCGCGCCTCTATTTACGTGTTCGTTCGCGGAGTCACCTAGTGCAG”, the binding signal is 8310 fluorescence intensity (a.u.).

Consider “CCAACACGTACGCCAGCCTCATCGGCCTCACCTGGTCGCTCGGAGTCACCTAGTGCAG”, for which the binding signal is 9090 fluorescence intensity (a.u.).

For “TCCCTCGTCATCGTCAACCTCCTCCTCGTCCGCTTCCTGTCGGAGTCACCTAGTGCAG”, the binding signal is 10100 fluorescence intensity (a.u.).

Take “CAACACCCCTCGACACGTCGTTCATGCTCATTCGCGTACCCGGAGTCACCTAGTGCAG”: the binding signal was 8890 ± 395 fluorescence intensity (a.u.).

“GCCCTCGCTTTCTTCCCGCACCAACCCCGCCTACCGCTCCCGGAGTCACCTAGTGCAG”: the binding signal was 8090 fluorescence intensity (a.u.).

With “AACGACCCTTTGCTAGGTTTTGGATTTGTTTTGCTTTCTCCGGAGTCACCTAGTGCAG”, the binding signal is 11200 fluorescence intensity (a.u.).

For the sequence “GCAAGACCGTGTCAGGTCTTCCAATAACTCCCCGCGATTTCGGAGTCACCTAGTGCAG”, the binding signal is 8200 fluorescence intensity (a.u.).

As for “AACTCTTTCCTTCTCTCTCATCCCCATTTCATGCAAATAACGGAGTCACCTAGTGCAG”, the binding signal is 8480 fluorescence intensity (a.u.).

Consider “TCCCACATATTTTTTTATTTTGTTTTTATTCTAATGTCACCGGAGTCACCTAGTGCAG”, for which the binding signal is 9810 fluorescence intensity (a.u.).

In the case of “TGAGAAGGACCACTTAATTCTGAATATTCTCTTGGACAACCGGAGTCACCTAGTGCAG”, the binding signal is 8530 fluorescence intensity (a.u.).

Consider “GCGGCCGGTCCGAGCGAGCGGAGAGGGAGGAGGCGGGGAGCGGAGTCACCTAGTGCAG”, for which the binding signal is 8360 fluorescence intensity (a.u.).

Turning to “GTGGTATCATGTATCTAGTGGCGAGTGCGTTTACCATATACGGAGTCACCTAGTGCAG”, the binding signal is 10200 fluorescence intensity (a.u.).

With “GAGCTCGGCCTATCACCCACAAACTGATTGTCAGACCGAGCGGAGTCACCTAGTGCAG”, the binding signal was 8260 fluorescence intensity (a.u.).

With “GTGTTCCATGCCTCTAACCTAGCTACTTTTGCTGCCACTCCGGAGTCACCTAGTGCAG”, the binding signal was 12100 fluorescence intensity (a.u.).
